The results in this text go back to PubChem BioAssay AID256 (DTP/NCI, 2004).

The list does not hold the whole screen: it is rich in T/C values a quarter to a half above the control, in often repeated tests (any T/C) and in doses without a T/C. Other doses and runs of a compound stand elsewhere. T/C is the treated group as % of the vehicle group. Some doses have a count of surviving animals in place of a T/C: the source holds a T/C of zero for them, seemingly a mark for toxic or unscored doses. Some doses without a T/C left all or most animals alive at the check, yet need not have been tolerated: survival well below the control is almost never listed, so the zero probably covers shortened survival too. Survivors were counted at the toxicity check, usually on the fifth day, unless a day is given; later deaths do not show. Schedule codes are those of the source, taken here to give the interval after Q, in days (D) or hours (H), and the number of doses after X. Where survival is the endpoint, this PubChem deposit counts one and a half times the control or more as active, and values a quarter to a half above the control carry no call in these data; other NCI protocols may use other cut-offs. Some entries were tested several times; their values stand side by side, smallest first. Some T/C values carry the count of animals alive at the toxicity check (mostly the fifth day); where none is given, no animal had died by that day.

In the experiment the test system is CD2F1 mice, L1210 leukemia ip, survival T/C. As to the kind of experiment: NCI In Vivo Anticancer Drug Screen. Data for tumor model L1210 Leukemia (intraperitoneal) in CD2F1 (CDF1) mice. The settings on record: higher T/C = longer survival. The method in brief:
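Antitumor effect is scored in animals hosting a serially transplanted tumor. Values compare compound-dosed animals against vehicle-only controls as a simple quotient.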

[1] abbreviates: T/C endpoint: mean survival time, dose: 100.0 mg/kg/injection, schedule: Q04DX003 (ip), vehicle: saline with Tween-80.
Where [2] appears, read: T/C endpoint: mean survival time, dose: 150.0 mg/kg/injection, schedule: Q01DX001 (ip), vehicle: saline.
Where [3] appears, read: T/C endpoint: mean survival time, dose: 300.0 mg/kg/injection, schedule: Q01DX001 (ip), vehicle: saline.
Setting [4] is: T/C endpoint: mean survival time, dose: 200.0 mg/kg/injection, schedule: Q04DX003 (ip), vehicle: saline with Tween-80.
Setting [5] is: T/C endpoint: mean survival time, dose: 400.0 mg/kg/injection, schedule: Q04DX003 (ip), vehicle: saline with Tween-80.
[6] abbreviates: T/C endpoint: mean survival time, dose: 200.0 mg/kg/injection, schedule: Q01DX009 (ip), vehicle: saline with Tween-80.
Setting [7] is: T/C endpoint: mean survival time, dose: 100.0 mg/kg/injection, schedule: Q01DX009 (ip), vehicle: saline with Tween-80.
[8] abbreviates: T/C endpoint: median survival time, dose: 2.0 mg/kg/injection, schedule: Q01DX009 (ip), vehicle: saline + alcohol.

Consider `CN=NNc1ccccc1`, for which the T/C is 125 % of control [5 of 6 alive] under setting [1]; 137 % of control under setting [2]; 131 % of control (T/C endpoint: mean survival time, dose: 150.0 mg/kg/injection, schedule: Q04DX003 (ip), vehicle: saline with Tween-80). Besides, under setting [3], the survivor count is given as 0 of 6.

Take `N#CC1CC2C=CC1C2` (stereo unspecified): the survivor count by setting is: under setting [1], 0 of 6; under setting [4], 0 of 6; under setting [5], 0 of 6.

For `COC12[C@@H]3N[C@@H]3CN1C1=C(C(=O)C(N3CCCC(O)C3)=C(C)C1=O)[C@@H]2COC(N)=O` (stereo partly specified), the T/C (T/C endpoint: median survival time, dose: 24.0 mg/kg/injection, schedule: Q01DX001 (ip), vehicle: saline) is 126 % of control.

As to `CC(C)OC(=O)C#CC(=O)O`, the survivor count (T/C endpoint: mean survival time, dose: 100.0 mg/kg/injection, schedule: Q01DX001 (ip), vehicle: saline) was 2 of 6.

Take `C[CH2][Pb]([CH2]C)([CH2]C)[O]S(=O)(=O)c1ccc(C)cc1`: the survivor count by setting is: (T/C endpoint: mean survival time, dose: 6.25 mg/kg/injection, schedule: Q01DX009 (ip), vehicle: saline with Tween-80) 3 of 6; (T/C endpoint: mean survival time, dose: 12.5 mg/kg/injection, schedule: Q01DX009 (ip), vehicle: saline with Tween-80) 1 of 6; (T/C endpoint: mean survival time, dose: 25.0 mg/kg/injection, schedule: Q01DX009 (ip), vehicle: saline with Tween-80) 0 of 6.

Consider `CN=S(=O)(OCCCCCOS(=O)(=NC)c1ccccc1)c1ccccc1` (stereo unspecified), for which the survivor count is 6 of 6 under setting [6] and 2 of 5 (T/C endpoint: mean survival time, dose: 400.0 mg/kg/injection, schedule: Q01DX009 (ip), vehicle: saline with Tween-80).

`C=C(Br)COCC`: the survivor count is, setting by setting: under setting [4], 0 of 6; under setting [5], 0 of 6.

In the case of `CC[C@H]1CN2CCc3cc(OC)c(OC)cc3[C@@H]2C[C@@H]1C[C@H]1NCCc2cc(O)c(OC)cc21`, the T/C (T/C endpoint: mean survival time, dose: 4.0 mg/kg/injection, schedule: Q01DX015 (ip), vehicle: saline) is 128 % of control.

As to `C[n+]1c[se]cn1`, the survivor count is, setting by setting: (T/C endpoint: mean survival time, dose: 75.0 mg/kg/injection, schedule: Q01DX001 (ip), vehicle: saline) 0 of 6; under setting [2], 0 of 6; under setting [3], 0 of 6.

In the case of `CCOC(=O)c1c(OC)cc2n(c1=O)Cc1cc3ccccc3nc1-2`, the survivor count reads like this: under setting [4], 5 of 6; under setting [5], 6 of 6.

As for `NC(N)=NC1CCCC1`, the survivor count under setting [7] is reported as 2 of 6.

Regarding `O=[N+]([O-])c1cccc(/C=C/C2(CCl)OCCO2)c1`, where the note is “T/C endpoint: mean survival time, dose: 400.0 mg/kg/injection, schedule: Q01DX001 (ip), vehicle: saline with Tween-80”, the survivor count was 0 of 6.

For `O=C1CCCCC1C(=O)C(F)(F)F` (stereo unspecified), the survivor count reads like this: (T/C endpoint: mean survival time, dose: 255.0 mg/kg/injection, schedule: Q01DX009 (ip), vehicle: saline with Tween-80) 6 of 6; (T/C endpoint: mean survival time, dose: 385.0 mg/kg/injection, schedule: Q01DX009 (ip), vehicle: saline with Tween-80) 2 of 6.

As to `CC1=[N+]([O-])[N+]([O-])=C(C)C1=O`, the survivor count by setting is: (T/C endpoint: mean survival time, dose: 50.0 mg/kg/injection, schedule: Q01DX009 (ip), vehicle: Klucel (hydroxypropylcellulose) (HPC)) 0 of 3; (T/C endpoint: mean survival time, dose: 100.0 mg/kg/injection, schedule: Q01DX009 (ip), vehicle: Klucel (hydroxypropylcellulose) (HPC)) 0 of 3; (T/C endpoint: mean survival time, dose: 200.0 mg/kg/injection, schedule: Q01DX009 (ip), vehicle: Klucel (hydroxypropylcellulose) (HPC)) 0 of 3.

On to `N/C(Cc1ccc(N)cc1)=N\O`, for which the survivor count is 0 of 6 under setting [4] and 0 of 6 under setting [5].

In the case of `CN(C)C1CCC(Nc2nc(Nc3cc(Cl)cc(Cl)c3)nc3ccccc23)CC1` (stereo unspecified), the survivor count under setting [7] is reported as 2 of 6.

`CC12CCC(CC1CO)C2` (stereo unspecified): under setting [5], the survivor count was 1 of 6.

`CS(=O)(=O)OCCC(=O)N1CCN(C(=O)CCOS(C)(=O)=O)CC1`: the T/C was 139 % of control (T/C endpoint: mean survival time, dose: 8.0 mg/kg/injection, schedule: Q03HX016 (ip), vehicle: saline); 149 % of control (T/C endpoint: mean survival time, dose: 8.0 mg/kg/injection, schedule: Q03HX024 (ip), vehicle: saline); 134 % of control (T/C endpoint: mean survival time, dose: 16.0 mg/kg/injection, schedule: Q01DX009 (ip), vehicle: saline); 143 % of control (T/C endpoint: mean survival time, dose: 16.0 mg/kg/injection, schedule: Q03HX008 (ip), vehicle: saline); 125 % of control (T/C endpoint: mean survival time, dose: 64.0 mg/kg/injection, schedule: Q01DX001 (ip), vehicle: saline); 147 % of control (T/C endpoint: mean survival time, dose: 64.0 mg/kg/injection, schedule: Q04DX003 (ip), vehicle: saline). Also, the T/C is 135 % of control (T/C endpoint: mean survival time, dose: 64.0 mg/kg/injection, schedule: Q08DX002 (ip), vehicle: saline) and 146 % of control (T/C endpoint: mean survival time, dose: 128.0 mg/kg/injection, schedule: Q01DX001 (ip), vehicle: saline). In addition, the survivor count by setting is: (T/C endpoint: mean survival time, dose: 64.0 mg/kg/injection, schedule: Q03HX008 (ip), vehicle: saline) 10 of 10; (T/C endpoint: mean survival time, dose: 64.0 mg/kg/injection, schedule: Q03HX024 (ip), vehicle: saline) 10 of 10; (T/C endpoint: mean survival time, dose: 256.0 mg/kg/injection, schedule: Q01DX009 (ip), vehicle: saline) 10 of 10; (T/C endpoint: mean survival time, dose: 512.0 mg/kg/injection, schedule: Q08DX002 (ip), vehicle: saline) 9 of 10.

As for `CS(=O)(=O)Nc1ccc(Nc2c3ccccc3nc3cc([N+](=O)[O-])ccc23)cc1`, for the setting “T/C endpoint: mean survival time, dose: 15.0 mg/kg/injection, schedule: Q01DX009 (ip), vehicle: saline”, the T/C is 147 % of control. In addition, the survivor count (T/C endpoint: mean survival time, dose: 22.0 mg/kg/injection, schedule: Q01DX009 (ip), vehicle: saline) is 6 of 6.

Consider `Cc1ccc(OCCOc2ccc([N+](=O)[O-])cc2)cc1`, for which, where the note is “T/C endpoint: mean survival time, dose: 100.0 mg/kg/injection, schedule: Q04DX003 (ip), vehicle: other”, the survivor count is recorded as 3 of 6.

For the compound `Cc1cn(C2CC(O)C(CO)O2)c(=O)[nH]c1=O` (stereo unspecified), the survivor count is 5 of 6 (T/C endpoint: mean survival time, dose: 100.0 mg/kg/injection, schedule: Q01DX009 (ip), vehicle: saline) and 6 of 6 (T/C endpoint: mean survival time, dose: 400.0 mg/kg/injection, schedule: Q01DX009 (ip), vehicle: saline).

On to `O=C(NCCF)NC1CCSc2ccccc21` (stereo unspecified), for which the survivor count (T/C endpoint: mean survival time, dose: 300.0 mg/kg/injection, schedule: Q01DX001 (ip), vehicle: other) was 0 of 6.

`O=c1cc(CBr)c2ccccc2[nH]1`: the survivor count runs as follows: (T/C endpoint: mean survival time, dose: 50.0 mg/kg/injection, schedule: Q04DX003 (ip), vehicle: saline with Tween-80) 2 of 6; under setting [1], 0 of 6.

On to `NC(=O)N/N=C\c1ccco1`, for which the survivor count by setting is: under setting [4], 3 of 6; under setting [5], 0 of 6.

For `COC(=O)[C@@]12OC[C@]34[C@H]([C@@H](O)[C@@H]1O)[C@@]1(C)CC(=O)C(O)=C(C)[C@@H]1C[C@H]3OC(=O)[C@H](OC(=O)/C=C(\C)C(C)C)[C@@H]24`, the T/C (T/C endpoint: mean survival time, dose: 2000.0 micrograms/kg/injection, schedule: Q01DX009 (ip), vehicle: saline + alcohol) is 125 % of control [5 of 6 alive]; the T/C (T/C endpoint: median survival time, dose: 0.5 mg/kg/injection, schedule: Q01DX009 (ip), vehicle: saline + alcohol) was 128 % of control; the T/C (T/C endpoint: median survival time, dose: 1.0 mg/kg/injection, schedule: Q01DX009 (ip), vehicle: saline + alcohol) is 126 and 141 % of control; the T/C under setting [8] is 125 % of control. Also, the survivor count is recorded as 3 of 6 (T/C endpoint: mean survival time, dose: 4000.0 micrograms/kg/injection, schedule: Q01DX009 (ip), vehicle: saline + alcohol); 2 of 6 under setting [8]; 1 of 6 (T/C endpoint: median survival time, dose: 4.0 mg/kg/injection, schedule: Q01DX009 (ip), vehicle: saline + alcohol).

For `COc1ccc(/C=C(\C)[N+](=O)[O-])cc1OC`, the survivor count is, setting by setting: (T/C endpoint: mean survival time, dose: 100.0 mg/kg/injection, schedule: Q01DX009 (ip), vehicle: water) 5 of 6; (T/C endpoint: mean survival time, dose: 200.0 mg/kg/injection, schedule: Q01DX009 (ip), vehicle: water) 3 of 6.

For `CCNC(=O)Nc1nc2ccccc2[nH]1`, the survivor count by setting is: under setting [7], 3 of 3; under setting [6], 1 of 3.
